Experimental data as given in article doi:10.1101/2021.09.28.462098.
These are yes or no findings as the source states them, for the method shown. Some binding calls cover weakened binding; strength is not graded here.

Amino acid sequences for entries named in this document (tags omitted).
UniProt Q07335: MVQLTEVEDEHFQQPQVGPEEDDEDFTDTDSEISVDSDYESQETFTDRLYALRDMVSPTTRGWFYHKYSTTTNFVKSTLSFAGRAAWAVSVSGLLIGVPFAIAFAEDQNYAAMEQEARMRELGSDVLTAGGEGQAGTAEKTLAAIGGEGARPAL

Biological target: Tom22 with a hexahistidine tag at the C-terminus (Neurospora crassa) (UniProt Q07335)
Assay: co-purification

binding: binds
B1: Tom6 (protein, UniProt Q1K6I2 1-60)
chain: MPSAKYIERPGGSRKSKGFIRSTYDSLTSSENASVVRSIAFFGAAVAFLSSSWGEMLVVQ
